## Percent effect of library compounds

The chains behind the UniProt entries cited, without tags or fusion partners.
UniProt P9WPC5, whole entry: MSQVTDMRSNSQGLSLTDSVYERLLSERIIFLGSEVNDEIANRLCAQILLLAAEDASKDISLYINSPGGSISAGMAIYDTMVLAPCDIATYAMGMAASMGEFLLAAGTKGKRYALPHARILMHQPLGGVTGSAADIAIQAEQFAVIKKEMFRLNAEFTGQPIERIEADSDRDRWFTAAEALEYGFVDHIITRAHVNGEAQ
UniProt P9WPC3, whole entry partner: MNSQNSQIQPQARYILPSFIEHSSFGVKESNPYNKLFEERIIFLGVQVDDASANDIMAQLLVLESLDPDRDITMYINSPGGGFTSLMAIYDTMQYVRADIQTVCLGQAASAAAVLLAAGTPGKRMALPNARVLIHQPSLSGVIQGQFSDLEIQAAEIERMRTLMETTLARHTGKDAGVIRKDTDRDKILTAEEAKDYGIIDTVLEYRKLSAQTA
UniProt P9WNZ1, whole entry: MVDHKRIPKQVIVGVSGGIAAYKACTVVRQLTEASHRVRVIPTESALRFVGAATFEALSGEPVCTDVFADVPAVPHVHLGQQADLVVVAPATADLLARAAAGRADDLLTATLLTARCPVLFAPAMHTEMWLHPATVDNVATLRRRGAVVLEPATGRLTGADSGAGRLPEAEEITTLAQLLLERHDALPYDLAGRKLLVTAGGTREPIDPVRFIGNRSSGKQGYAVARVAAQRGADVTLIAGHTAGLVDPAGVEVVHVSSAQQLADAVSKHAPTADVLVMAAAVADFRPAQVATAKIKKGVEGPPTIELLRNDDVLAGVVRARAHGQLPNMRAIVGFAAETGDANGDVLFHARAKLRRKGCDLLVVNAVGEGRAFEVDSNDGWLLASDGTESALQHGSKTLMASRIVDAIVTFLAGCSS

Values are the deposited “Percent Effect”, in %. How 0% and 100% were set is not recorded. Most values in the screen are low, and negative values occur. Compounds were drawn at random from those tested, without regard to their results. A dash means the value is not listed here; it may have been measured.

ClpP1P2: 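Protease assay of ClpP1P2, read by the AMC dye that it sets free. Target: ClpP1P2, Mycobacterium tuberculosis (UniProt P9WPC5 and UniProt P9WPC3). Concentration: 50 µM. Direction is inferred from only a few compounds that gave an IC50; most scored high, so higher reads as stronger inhibition. Most other retested compounds had strongly negative values. Of about 69,000 compounds tested this way, about 10 (0.015%) reached 50% or more in at least one test.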
CoaBC: 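Enzyme assay of CoaBC with a phosphate dye (Biomol Green) read at 650 nm. Target: Coenzyme A biosynthesis protein CoaBC, Mycobacterium tuberculosis (UniProt P9WNZ1). Compounds at 30 µM. Higher reads as stronger inhibition, judged from the few compounds that gave an IC50. Most strong results did not repeat in a second test. Size under these conditions: about 67,000 compounds, about 40 of them at 50% or above in at least one test.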
Toxoplasma: 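Assay of Toxoplasma gondii numbers, read through their beta-galactosidase reporter with a colour substrate. Tested at 10 µM. Higher reads as fewer parasites (inferred from which compounds were picked for retests). Of about 67,000 compounds tested this way, about 260 (0.38%) reached 50% or more in at least one test.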

SMILES | ClpP1P2 | CoaBC | Toxoplasma
Cc1cccc(CN2CCc3cc(C(=O)O)c(N(C)C)nc3CC2)n1.O=C(O)C(F)(F)F.O=C(O)C(F)(F)F | - | - | 11.23%
CC(C)NC(=O)C1CN(C(=O)N(C)C)CC12CCOCC2 (centres undefined) | -11.88% | 1.238% | -1.32%
O=C1C(Sc2cnn[nH]2)CCCN1c1ccccc1F (centres undefined) | -7.944% | - | -1.402%
Cn1nc(CN2CCCC2)c2c1CN(CC1CC1)CC2 | 0.03966% | 0.2439% | -
CC(C)N1CCN(c2ccc3ccc(C(=O)NC4CCCC4)cn23)CC1 | 2.537% | 9.653% | -
Cc1noc(C(C)C)c1C(=O)NCCCN1CCCCCC1=O | -2.493% | 0.4779% | 2.199%
Cc1noc(Cl)c1CC(=O)N1CCCC(n2cccn2)C1 (centres undefined) | 5.791% | 6.845% | 1.569%
[H][C@@]12CCCC[C@]1(O)CCN(C(=O)OC)[C@H]2c1ccc2c(c1)OCO2 | - | - | 9.051%
Cn1ccc2c(C(=O)NCCCS(C)(=O)=O)cccc21 | -9.092% | 8.403% | 7.465%
COCc1nn(C(C)C)c2c1CCN(Cc1ccsc1)C2 | -8.517% | 0.1233% | 14.64%
O=C(N1CCOCC1)N1CCc2ncc(CN3CCCCC3)n2CC1.O=C(O)C(F)(F)F | - | - | -22.06%
CCCc1c(C(=O)N2CCN(c3ncccn3)CC2)cnn1C | 1.768% | -6.746% | -0.911%
O=C(O)C(F)(F)F.O=c1ccc2c([nH]1)CCC(NCc1ccc(F)cc1)C2 (centres undefined) | - | - | 5.941%
O=C(c1ccncc1)N1C[C@@H]2CCN(c3cccnc3)C[C@@H]2C1 | 7.178% | 5.584% | -
Cc1noc(C)c1CC(=O)NCCc1cccs1 | 8.534% | -7.455% | 3.717%
CCn1cnnc1CNC(=O)N1CCN(c2ccccc2OC)CC1 | -6.968% | -0.9032% | -6.473%
CCO[C@H]1CN(C(=O)c2ccc3c(c2)OCO3)[C@@H]2COC[C@H]12 | -5.859% | - | -
COc1ccc(C)cc1C1(CNc2cn[nH]c(=O)c2Cl)CCOCC1 | 1.196% | 5.976% | -8.251%
O=C(NCCS(=O)(=O)N1CCN(c2ncccn2)CC1)c1ccccc1 | -2.097% | 5.368% | -13.44%
O=C(c1cc(-c2ccco2)nc2c(Cl)cccc12)N1CC[C@H]2CNC[C@H]21 | -58.41% | 0% | -
O=C(c1ccco1)N1CCc2ncnc(NCc3ccccn3)c2CC1 | -2.275% | 1.707% | 1.514%
COCCNC(=O)C1CN(Cc2ccncc2)Cc2ccnn2C1.O=C(O)C(F)(F)F.O=C(O)C(F)(F)F.O=C(O)C(F)(F)F (centres undefined) | - | - | 2.821%
O=C(NCc1cc2n(n1)CCCN(Cc1ccc(Cl)s1)C2)C1CCC1 | -7.672% | 3.981% | -9.57%
COc1c(C(=O)N2CCOCC2)cnc2c1c(C)nn2C | -13.09% | 0.4854% | -14.92%
CCc1nc(CN2CCCN(C(=O)c3cccn3C)CC2)cs1 | -4.702% | -1.238% | -6.317%
CCN1CCN(C(=O)c2cc(F)cc3nc(C)c(C)nc23)CC1 | 6.491% | 7.54% | -0.911%
O=C1CCCN1CCCC(=O)N1CCCCC1c1ccc(F)cc1 (centres undefined) | -3.957% | 0.8537% | 5.653%
Cc1cnc(CN(C)Cc2cc3c(cc2OC(F)F)OCO3)o1 | -6.895% | 2.29% | -10.6%
CNC(=O)c1cccnc1N1CCC(Oc2ccc(F)cc2)CC1 | -2.269% | -0.1272% | 2.927%
O=C(CCC(F)(F)F)N1CCCC(CO)(CC2CC2)C1 (centres undefined) | -6.488% | -5.741% | 8.582%
c1cnnc(N2CCCC2CNc2nc3ccccc3o2)c1 (centres undefined) | 7.537% | 0.5222% | -1.069%
CC(=O)N1CCC2(CC1)COCCN2CCN(C)C | 3.989% | 3.934% | -
CC(C)(C)c1ccn(C2(C(=O)O)CCN(c3ccncc3F)CC2)n1 | 3.541% | 4.783% | -4.307%
Cc1cc(CNc2ccc3nc(C4CC4)sc3c2)no1 | -1.148% | 5.782% | 23.46%
Cc1cccc(CN2C(=O)CC[C@@H]3[C@H]2CCN3CC2CCOCC2)n1 | 3.698% | -2.332% | -
CNCc1ccc(OCc2ccc3c(c2)OCCO3)cc1 | 22.84% | 0.1266% | -
COc1ccc(-c2cc(CC3(NCc4ccc(C)o4)COC3)no2)cc1 | 6.244% | -13.47% | -7.557%
Cc1cccc(-c2nnn3c2COC(CNCc2nccs2)C3)c1.O=C(O)C(F)(F)F (centres undefined) | - | - | 1.553%

4 of the entries, repeated:

- [H][C@@]12CCCC[C@]1(O)CCN(C(=O)OC)[C@H]2c1ccc2c(c1)OCO2 : Toxoplasma: 9.051%
- O=C(c1ccco1)N1CCc2ncnc(NCc3ccccn3)c2CC1 : ClpP1P2: -2.275%; CoaBC: 1.707%; Toxoplasma: 1.514%
- c1cnnc(N2CCCC2CNc2nc3ccccc3o2)c1 (centres undefined) : ClpP1P2: 7.537%; CoaBC: 0.5222%; Toxoplasma: -1.069%
- CCN1CCN(C(=O)c2cc(F)cc3nc(C)c(C)nc23)CC1 : ClpP1P2: 6.491%; CoaBC: 7.54%; Toxoplasma: -0.911%

Measurements from “University of Dundee, Small-Polar-MMV Screening Library” (2021), ChEMBL document CHEMBL3988442.